In PubChem BioAssay AID504834 (National Center for Advancing Translational Sciences (NCATS), 2011):
Hit rate of the full screen: of about 320,000 compounds, about 22,000 (6.9%) were called active. Inconclusive results, whose numbers are uncertain, are shown with a selection of clear calls. Calls come from the whole dose curve; as a rule, active = well fitted inhibition curve with a large enough effect; inconclusive = small, poorly fitted or top-dose-only effect, or another doubt; inactive = no such curve, though single readings can be large or run the other way. A potency beside an inconclusive call is a rough fit, not a confirmed value.

Assay: Primary qHTS for delayed death inhibitors of the malarial parasite plastid, 96 hour incubation
Conditions: P. falciparum luciferase reporter growth; series mostly up to 28.7 µM
How it was run: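 96 h incubation, 37 C, 5% CO2, of luciferase-reporter P. falciparum-infected RBCs (2% hematocrit, 0.05% parasitemia final) with test compounds; endpoint luminescence.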
Potency is the fitted concentration of half-maximal effect.

SMILES | Potency
Cc1cc(C)c(S(=O)(=O)NCc2cccnc2)c(C)c1 | inactive
COCCCNC(=O)/C(C#N)=C/c1c(N2CCN(c3ccccc3)CC2)nc2ccccn2c1=O | inconclusive: 18.5 µM [inhibitor, single point]
Oc1ccc(-c2onc3ccc(Cl)cc23)cc1 | inconclusive: 18.5 µM [inhibitor, single point]
Nc1nonc1-n1nnc(C(=O)N/N=C/c2ccccn2)c1-c1ccccc1 | inactive
CCOc1ccccc1NC(=O)Cn1c(=O)n(CCC(=O)NC2CCCC2)c(=O)c2ccccc21 | inconclusive: 18.5 µM [inhibitor, single point]
CC(C(=O)Nc1ccc2c(c1)OCCO2)N1CCN(C(=O)c2ccco2)CC1 (configuration not stated) | inconclusive: 18.5 µM [inhibitor, single point]
CC(Nc1ccc(N2CCOCC2)cc1)C(=O)N1c2ccccc2CC1C (configuration not stated) | inconclusive: 9.28 µM [inhibitor, partial curve]
Cn1ncc(Br)c1C(=O)NC1CCCCCCC1 | inconclusive: 4.15 µM [inhibitor, single point]
Cc1noc(C)c1C(=O)OCC(=O)Nc1ccccc1C(=O)NC(C)c1ccccc1 (configuration not stated) | inconclusive: 18.5 µM [inhibitor, single point]
CC(C)c1ccc(S(=O)(=O)N2CCN(C(=O)Cc3ccsc3)CC2)cc1 | inconclusive: 2.94 µM [inhibitor, full curve, poor fit]
CCOC(=O)Cc1csc(NC(=O)C(NC(=O)C2CCCCC2)C(C)C)n1 (configuration not stated) | inconclusive: 16.5 µM [inhibitor, single point]
CC(C)c1ccc(/C=C/C(=O)Nc2ccc(CN3CCOCC3)cc2)cc1 | inconclusive: 11.7 µM [inhibitor, partial curve, poor fit]
Cc1ccccc1NS(=O)(=O)c1ccc(C(=O)N2CCN(S(=O)(=O)c3ccccc3)CC2)cc1 | inconclusive: 9.28 µM [inhibitor, partial curve, poor fit]
O=C(O)Cn1cc(/C=N/Nc2ccc([N+](=O)[O-])cn2)c2ccccc21 | inactive
O=S(=O)(c1ccc(Cl)cc1)N1CCN(Cc2ccc(O)c3ncccc23)CC1 | inconclusive: 13.1 µM [inhibitor, partial curve, poor fit]
Cc1ccc(C)c(NC(=O)CN(C)C(=O)Cc2ccccc2)c1 | inactive
O=C(Cn1nnc(-c2cccc(C(F)(F)F)c2)n1)N1CCCCCC1 | inactive
Cc1cc(C)cc(NC(=O)CSc2nc(=O)n(CCCN3CCOCC3)c3c2CCCC3)c1 | inconclusive: 11.7 µM [inhibitor, single point]
O=[N+]([O-])c1ccc(N2CCCCC2)nc1N1CCCCC1 | active: 3.29 µM
Cc1ccccc1C(=O)NC1CCN(CC(=O)NCc2ccccc2)CC1 | inactive
COc1ccc(NC(=O)CSc2ccccn2)cc1OC | inactive
Cc1cc(=O)oc(C)c1C(=O)OC(C(=O)c1ccccc1)c1ccccc1 (configuration not stated) | inconclusive: 11.7 µM [inhibitor, single point]
COc1cccc(Cn2cnc3c(NS(=O)(=O)c4cc(Cl)ccc4Cl)c(C)c(C)cc32)c1 | inconclusive: 4.65 µM [inhibitor, partial curve]

SMILES | Potency
Cc1ccc(S(=O)(=O)CCC(=O)N(C)C2CCCCC2)cc1 | inactive
CCOc1ccc(NC(=O)CSc2nnc(C3CC3)n2C)cc1 | active: 2.08 µM
CC(C)c1ccc(NC(=O)CCNC(=O)N2CC(=O)Nc3ccccc32)cc1 | inconclusive: 18.5 µM [inhibitor, single point]
O=C(c1cc2nc(-c3ccccc3)cc(-c3ccccc3)n2n1)N1CCCC1 | inactive
CCCCOC(=O)c1sc2nc(N3CCOCC3)c3c(c2c1N)CC(C)(C)OC3 | inactive
COc1ccc(C(=O)N(C)Cc2nc3ccccc3c(=O)[nH]2)cc1S(=O)(=O)N1CCCC1 | inconclusive: 0.0026 µM [inhibitor, full curve, poor fit]
c1ccc(-c2ccccc2OCCN2CCCCC2)cc1 | inconclusive: 18.5 µM [inhibitor, single point]
COc1ccc(OC)c(-c2csc(N(C)C(=O)c3ccco3)n2)c1 | inconclusive: 18.5 µM [inhibitor, single point]
O=C(c1ccc(F)cc1)N1CCN(c2cc(=O)[nH]nc2-c2ccccc2)CC1 | inconclusive: 18.5 µM [inhibitor, partial curve, poor fit]
COCCN1CCCC(CNCc2cn(C)nc2-c2ccc(Oc3ccccc3)cc2)C1 (configuration not stated) | inconclusive: 9.28 µM [inhibitor, single point]
CC1CCCC(C)N1C(=O)/C=C/c1ccc(S(=O)(=O)N2CCOCC2)cc1 (configuration not stated) | inconclusive: 4.65 µM [inhibitor, partial curve]
Cc1nnc(NC(=O)CSc2nnc(-c3ccco3)n2C(C)C)s1 | inconclusive: 13.1 µM [inhibitor, partial curve]
COc1ccc(/C=N\NC(=O)c2ccc(-c3ccccc3)cc2)c(OC)c1OC | active: 0.828 µM
CCOC(=O)C1(Cc2ccccc2)CCN(Cc2cnc(N3CCOCC3)s2)CC1 | inconclusive: 9.28 µM [inhibitor, partial curve, poor fit]
O=C(c1ccc(COc2ccc(Cl)cc2)cc1)N1CCCCC1 | inconclusive: 18.5 µM [inhibitor, single point]
COc1ccc(/C=N/NC(=O)CCn2c3ccccc3c3ccccc32)cc1O | inconclusive: 10.4 µM [inhibitor, single point]
O=C(NCCCN1CCOCC1)C1CCC(=O)N1C1CCCCC1 (configuration not stated) | inconclusive: 20.8 µM [inhibitor, single point]
COc1ccccc1-c1cc(C(=O)N2CCc3ccccc3C2)c2ccccc2n1 | inconclusive: 16.5 µM [inhibitor, partial curve, poor fit]
CCOC(=O)c1cnc2c(C)cc(Cl)cc2c1NCCCN1CCOCC1 | inconclusive: 18.5 µM [inhibitor, single point]
CC(=O)Nc1ccc(NC(=O)c2ccc(-c3ccc([N+](=O)[O-])cc3)o2)cc1 | inactive
Cc1ccc(C(=O)NCc2cccnc2)cc1S(=O)(=O)N1CCCCCC1 | inconclusive: 13.1 µM [inhibitor, single point]
CC(CC=O)CCCC(C)(C)O (configuration not stated) | inactive
Cc1cc(NC(=O)CN2C(=O)NC(CC(C)C)C2=O)ccc1Br (configuration not stated) | inactive

Copied from the list:
For Potency, O=C(NCCCN1CCOCC1)C1CCC(=O)N1C1CCCCC1 (configuration not stated) has inconclusive: 20.8 µM [inhibitor, single point]
For Potency, CCOC(=O)C1(Cc2ccccc2)CCN(Cc2cnc(N3CCOCC3)s2)CC1 has inconclusive: 9.28 µM [inhibitor, partial curve, poor fit]

Next structures:

SMILES | Potency
O=C(CC(=O)N/N=C/c1c(F)cccc1Cl)NCCc1ccccc1 | inconclusive: 18.5 µM [inhibitor, single point]
CCCCCCCCNC(=O)/C(C#N)=C/c1ccccc1[N+](=O)[O-] | inconclusive: 7.38 µM [inhibitor, single point]
CC(C)CN1C(=O)NC(NC(=O)c2cccnc2)(C(F)(F)F)C1=O (configuration not stated) | inconclusive: 18.5 µM [inhibitor, single point]
COc1ccc(NC(=O)N(Cc2ccc3c(c2)OCO3)C2CC(=O)N(c3ccc(OC)cc3)C2=O)cc1 (configuration not stated) | inconclusive: 2.33 µM [inhibitor, single point]
COC(=O)c1c(C)oc(C)c1S(=O)(=O)NCc1ccc(Cl)cc1 | inactive
CCn1c(=O)c(C(=O)NCCc2ccc(OC)c(OC)c2)c(O)c2ccccc21 | active: 10.4 µM
Cc1cc(-c2nnc(SCC(=O)Nc3ccc(F)cc3)n2N)n[nH]1 | inconclusive: 14.7 µM [inhibitor, single point]
CCCOC(=O)c1ccc(NC(=O)C(=O)NCC2CCCO2)cc1 (configuration not stated) | inconclusive: 16.5 µM [inhibitor, single point]
COCCOC1CCN(C(=O)C2CCC(=O)N(CCc3cccc(F)c3)C2)CC1 (configuration not stated) | inconclusive: 1.47 µM [inhibitor, single point]
COc1ccccc1Nc1nc(N)nc(CN2CCC(C)CC2)n1 | inactive
CCCOc1ccc(C2C(C(=O)c3ccc(C)o3)=C(O)C(=O)N2Cc2ccco2)cc1 (configuration not stated) | inconclusive: 11.7 µM [inhibitor, single point]
O=C(c1cc([N+](=O)[O-])ccc1N1CCOCC1)N1CCN(S(=O)(=O)c2cc(Cl)ccc2Cl)CC1 | inconclusive: 0.928 µM [inhibitor, full curve, poor fit]
CN(C)Cc1c(C(=O)N/N=C/c2cccs2)nnn1-c1nonc1N | inactive
O=C(NCC1CCCO1)c1c(O)c2ccccc2[nH]c1=O (configuration not stated) | inconclusive: 7.38 µM [inhibitor, partial curve, poor fit]
O=S(=O)(c1ccccc1)c1nc(-c2cccc(Cl)c2)oc1N1CCOCC1 | inconclusive: 10.4 µM [inhibitor, single point]
Cc1nc(SCc2cccc(F)c2)c2oc3ccccc3c2n1 | inconclusive: 1.17 µM [inhibitor, partial curve, poor fit]
COc1ccc(-c2[nH]c(-c3ccc(SC)cc3)nc2SCC(=O)Nc2nccs2)cc1 | inconclusive: 4.15 µM [inhibitor, partial curve, poor fit]
COc1ccc(NC(=O)CSc2ncccn2)cc1S(=O)(=O)N1CCCCC1 | inconclusive: 18.5 µM [inhibitor, single point]
Clc1ccc(/C=N/c2c(-c3ccco3)nc3ccccn23)cc1 | inconclusive: 11.7 µM [inhibitor, single point]
O=C(CNC(=O)c1cccc(F)c1)N/N=C/c1cc(Br)ccc1OCc1ccccc1 | inactive
O=C(c1ccc(S(=O)(=O)c2cccc(Cl)c2)c([N+](=O)[O-])c1)N1CCN(c2ccccn2)CC1 | inconclusive: 18.5 µM [inhibitor, single point]
